Source: publication PMC3212559, “Large-Scale Protein-Protein Interaction Analysis in Arabidopsis Mesophyll Protoplasts by Split Firefly Luciferase Complementation” (PLoS ONE, 2011)
No constants are given. Whether binding was seen depends on the method and setting. In cells and extracts the contact can be indirect. For part of these data: Sequences can lack the tags named with a protein.

How the values were obtained:
Test in all cases: split reporter; SFLC in living Arabidopsis mesophyll protoplasts: Aux/IAA-FLucN or MYB30-FLucN co-expressed with ARFCTD-FLucC or Aux/IAA-FLucC for 6 hr; 10 µg of each construct, 2×10^4 cells, 96-well plate, D-luciferin; relative activity standardised against ARF5CTD-FLucC + IAA28-FLucN
IAA7-FLucC = molecular target: T1, IAA7-FLucC (Arabidopsis, UniProt Q38825 1-243)
T1 construct: Arabidopsis Aux/IAA protein IAA7; also called Aux/IAA-FLucC; source: Arabidopsis mesophyll protoplasts, transfected, in living cells; not shown: FLucC (firefly luciferase aa 394-550)
T1 sequence (looked up): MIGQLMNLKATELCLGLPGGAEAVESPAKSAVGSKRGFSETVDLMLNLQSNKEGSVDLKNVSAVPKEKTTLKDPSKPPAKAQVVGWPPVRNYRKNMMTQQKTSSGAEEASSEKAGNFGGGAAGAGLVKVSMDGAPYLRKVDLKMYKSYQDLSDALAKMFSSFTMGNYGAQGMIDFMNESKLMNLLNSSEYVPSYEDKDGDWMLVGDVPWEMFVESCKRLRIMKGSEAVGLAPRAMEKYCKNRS

IAA12-FLucC = molecular target: T2, IAA12-FLucC (Arabidopsis, UniProt Q38830 1-239)
T2 construct: Arabidopsis Aux/IAA protein IAA12; also called Aux/IAA-FLucC; source: Arabidopsis mesophyll protoplasts, transfected, in living cells; not shown: FLucC (firefly luciferase aa 394-550)
T2 sequence (looked up): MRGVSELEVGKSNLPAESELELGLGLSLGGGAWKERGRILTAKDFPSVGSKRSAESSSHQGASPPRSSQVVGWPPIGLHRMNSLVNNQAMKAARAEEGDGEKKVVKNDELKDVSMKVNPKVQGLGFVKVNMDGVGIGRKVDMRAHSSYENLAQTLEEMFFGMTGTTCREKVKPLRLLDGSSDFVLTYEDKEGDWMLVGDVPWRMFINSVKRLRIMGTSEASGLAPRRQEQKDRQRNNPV

IAA13-FLucC = molecular target: T3, IAA13-FLucC (Arabidopsis, UniProt Q38831 1-247)
T3 construct: Arabidopsis Aux/IAA protein IAA13; also called Aux/IAA-FLucC; source: Arabidopsis mesophyll protoplasts, transfected, in living cells; not shown: FLucC (firefly luciferase aa 394-550)
T3 sequence (looked up): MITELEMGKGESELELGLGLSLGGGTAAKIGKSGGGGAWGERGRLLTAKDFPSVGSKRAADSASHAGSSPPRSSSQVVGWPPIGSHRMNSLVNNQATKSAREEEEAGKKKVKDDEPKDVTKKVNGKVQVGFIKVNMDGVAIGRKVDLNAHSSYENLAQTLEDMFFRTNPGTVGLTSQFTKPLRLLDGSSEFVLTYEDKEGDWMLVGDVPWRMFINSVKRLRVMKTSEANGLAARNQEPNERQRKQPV

IAA14-FLucC = molecular target: T4, IAA14-FLucC (Arabidopsis, UniProt Q38832 1-228)
T4 construct: Arabidopsis Aux/IAA protein IAA14; also called Aux/IAA-FLucC; source: Arabidopsis mesophyll protoplasts, transfected, in living cells; not shown: FLucC (firefly luciferase aa 394-550)
T4 sequence (looked up): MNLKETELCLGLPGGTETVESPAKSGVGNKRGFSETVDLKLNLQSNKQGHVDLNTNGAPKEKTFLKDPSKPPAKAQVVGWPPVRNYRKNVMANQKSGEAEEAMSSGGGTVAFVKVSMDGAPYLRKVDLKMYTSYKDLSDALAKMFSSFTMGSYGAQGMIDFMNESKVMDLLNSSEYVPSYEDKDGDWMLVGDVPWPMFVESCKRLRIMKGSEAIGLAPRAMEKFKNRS

IAA18-FLucC = molecular target: T5, IAA18-FLucC (Arabidopsis, UniProt O24408 1-267)
T5 construct: Arabidopsis Aux/IAA protein IAA18; also called Aux/IAA-FLucC; source: Arabidopsis mesophyll protoplasts, transfected, in living cells; not shown: FLucC (firefly luciferase aa 394-550)
T5 sequence (looked up): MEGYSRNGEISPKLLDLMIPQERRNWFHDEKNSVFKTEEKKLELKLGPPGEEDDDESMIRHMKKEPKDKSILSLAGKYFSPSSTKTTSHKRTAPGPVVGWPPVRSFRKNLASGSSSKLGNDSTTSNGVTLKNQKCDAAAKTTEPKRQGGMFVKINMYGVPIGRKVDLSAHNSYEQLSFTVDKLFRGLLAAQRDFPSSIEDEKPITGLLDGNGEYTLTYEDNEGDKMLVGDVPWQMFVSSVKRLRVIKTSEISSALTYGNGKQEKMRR

IAA28-FLucC = molecular target: T6, IAA28-FLucC (Arabidopsis, UniProt Q9XFM0 1-175)
T6 construct: Arabidopsis Aux/IAA protein IAA28; also called Aux/IAA-FLucC; source: Arabidopsis mesophyll protoplasts, transfected, in living cells; not shown: FLucC (firefly luciferase aa 394-550)
T6 sequence (looked up): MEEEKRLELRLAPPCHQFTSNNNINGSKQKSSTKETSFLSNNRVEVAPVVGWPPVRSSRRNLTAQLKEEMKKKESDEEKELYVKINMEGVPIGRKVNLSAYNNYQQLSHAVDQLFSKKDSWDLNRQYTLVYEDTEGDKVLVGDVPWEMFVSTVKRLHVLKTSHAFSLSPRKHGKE

B1: MYB30-FLucN (natural protein, UniProt Q9SCU7 1-323, looked up)
chain: MVRPPCCDKGGVKKGPWTPEEDIILVTYIQEHGPGNWRAVPTNTGLLRCSKSCRLRWTNYLRPGIKRGNFTEHEEKMIVHLQALLGNRWAAIASYLPQRTDNDIKNYWNTHLKKKLNKVNQDSHQELDRSSLSSSPSSSSANSNSNISRGQWERRLQTDIHLAKKALSEALSPAVAPIITSTVTTTSSSAESRRSTSSASGFLRTQETSTTYASSTENIAKLLKGWVKNSPKTQNSADQIASTEVKEVIKSDDGKECAGAFQSFSEFDHSYQQAGVSPDHETKPDITGCCSNQSQWSLFEKWLFEDSGGQIGDILLDENTNFF
notes: transcription factor MYB30, the unrelated protein used as negative control; source: Arabidopsis mesophyll protoplasts, transfected, in living cells; not shown: FLucN (firefly luciferase aa 1-398)
binding (IAA7-FLucC): no binding (tested: relative luciferase activity below 0.1)
binding (IAA12-FLucC): no binding (tested: relative luciferase activity below 0.1)
binding (IAA13-FLucC): no binding (tested: relative luciferase activity below 0.1)
binding (IAA14-FLucC): no binding (tested: relative luciferase activity below 0.1)
binding (IAA18-FLucC): no binding (tested: relative luciferase activity below 0.1)
binding (IAA28-FLucC): no binding (tested: relative luciferase activity below 0.1)
